The values below come from PMC12376509.

For the experiment, the target named is T1, NEAT1-31 (micropeptide encoded by LincNEAT1) (human (endogenous in THP1)).
T1 sequence: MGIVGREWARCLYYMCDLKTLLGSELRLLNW
As to the kind of experiment: co-IP; IP-IB with Neat-31 antibody or Aurora A antibody from cell lysate; 0.3% CHAPS lysis buffer, Protein A/G beads, 4 °C, 8-12 h, washed with PBST; Western blot. On the technique in general: In western blotting, separated proteins are transferred to a membrane and probed.

No constants are given. Whether binding was seen depends on the method and setting. In cells and extracts the contact can be indirect. Some entries that bind do so weakly or less than the wild type.

B1: Aurora-A (enzyme, UniProt O14965 1-403)
chain: MDRSKENCISGPVKATAPVGGPKRVLVTQQFPCQNPLPVNSGQAQRVLCPSNSSQRIPLQAQKLVSSHKPVQNQKQKQLQATSVPHPVSRPLNNTQKSKQPLPSAPENNPEEELASKQKNEESKKRQWALEDFEIGRPLGKGKFGNVYLAREKQSKFILALKVLFKAQLEKAGVEHQLRREVEIQSHLRHPNILRLYGYFHDATRVYLILEYAPLGTVYRELQKLSKFDEQRTATYITELANALSYCHSKRVIHRDIKPENLLLGSAGELKIADFGWSVHAPSSRRTTLCGTLDYLPPEMIEGRMHDEKVDLWSLGVLCYEFLVGKPPFEANTYQETYKRISRVEFTFPDFVTEGARDLISRLLKHNPSQRPMLREVLEHPWITANSSKPSNCQNKESASKQS
With B1, the binding result is listed as “binds”.
